The target in the assay is His6-ΔNJcdIΔCΔC (D. discoideum). The assay is described as follows: co-purification (Ni2+ affinity + gel filtration); His6-ΔNJcdIΔCΔC and Skp1A co-expressed in E. coli; co-eluted from His-Trap at 250 mM imidazole (0.5 M NaCl) and purified over Superdex200 in 50 mM Hepes-NaOH pH 7.4, 50 mM NaCl, 10% glycerol, 2 mM DTT; SDS-PAGE and Western blot. For orientation: Size exclusion chromatography separates by hydrodynamic size, large species first.

These are yes or no findings as the source states them, for the method shown. Binding seen in cells or lysates may run through a third protein. Binding calls can cover weak binding; strength is not graded here.

B1: Skp1A (Dictyostelium, recombinant from E. coli) (protein, UniProt P52285 1-162)
chain: MSLVKLESSDEKVFEIEKEIACMSVTIKNMIEDIGESDSPIPLPNVTSTILEKVLDYCRHHHQHPSPQGDDKKDEKRLDDIPPYDRDFCKVDQPTLFELILAANYLDIKPLLDVTCKTVANMIRGKTPEEIRKIFNIKNDFTPEEEEQIRKENEWCEDKGGN
Take B1: the binding result was “binds”.

The values above are taken from article PMC9485057.
